Values from PubChem BioAssay AID1508597 (Cure First, 2020).
This is an unselected part of the about 2,100 reagents, under one of the conditions tested. 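Calls flag viability under 80% in either arm, not effects specific to rucaparib; the reference for percent is not stated.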 A reagent listed more than once was tested more than once; the source does not tell the runs apart. Reagent sequences are not shown. Not given: the 100% reference.

Test: 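Survival screen with siRNA in ovarian cancer cells derived from patients, with or without rucaparib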 (primary screen)
System: human ovarian carcinoma lines grown from tumours: OCI-P5x (papillary serous) and OCI-C5x (clear cell)
Reagents: siRNA pool against human genes, 1.25 pmol siRNA per well
Duration: 72 h or 96 h, depending on the cell culture
Treatment: rucaparib 20 µM (about IC30) or vehicle, present until read-out
Rucaparib or vehicle: Vehicle
Cell line: OCI-P5x (serous)
Measurement: 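ATP luminescence measured at 72 or 96 h according to the culture, then normalised and expressed as percent viability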
Scale: viability, normalised: higher = more viable cells remaining
Active means: 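a well counts as a hit if its normalised viability is under 80 percent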
Meaning of the calls: active = viability under 80%; inactive = viability 80% or more

target	technical replicate	viability, normalised (%)	outcome
INSR (insulin receptor)	1	99.2	inactive
INSR (insulin receptor)	2	89.2	inactive
INSR (insulin receptor)	3	95.9	inactive
ZMYND11 (zinc finger MYND-type containing 11)	1	67.5	active
ZMYND11 (zinc finger MYND-type containing 11)	2	51.3	active
ZMYND11 (zinc finger MYND-type containing 11)	3	51.8	active
KPNA1 (karyopherin subunit alpha 1)	1	99.4	inactive
KPNA1 (karyopherin subunit alpha 1)	2	91.7	inactive
KPNA1 (karyopherin subunit alpha 1)	3	61.1	active
PARP16 (poly(ADP-ribose) polymerase family member 16)	1	62.1	active
PARP16 (poly(ADP-ribose) polymerase family member 16)	2	66.7	active
PARP16 (poly(ADP-ribose) polymerase family member 16)	3	83.9	inactive
RIPK4 (receptor interacting serine/threonine kinase 4)	1	90.8	inactive
RIPK4 (receptor interacting serine/threonine kinase 4)	2	73.7	active
RIPK4 (receptor interacting serine/threonine kinase 4)	3	83.2	inactive
EIF2AK1 (eukaryotic translation initiation factor 2 alpha kinase 1)	1	57.8	active
EIF2AK1 (eukaryotic translation initiation factor 2 alpha kinase 1)	2	66.8	active
EIF2AK1 (eukaryotic translation initiation factor 2 alpha kinase 1)	3	63.1	active

Records listed above with an active call (10):
target	technical replicate	viability, normalised (%)	outcome
ZMYND11 (zinc finger MYND-type containing 11)	1	67.5	active
ZMYND11 (zinc finger MYND-type containing 11)	2	51.3	active
ZMYND11 (zinc finger MYND-type containing 11)	3	51.8	active
KPNA1 (karyopherin subunit alpha 1)	3	61.1	active
PARP16 (poly(ADP-ribose) polymerase family member 16)	1	62.1	active
PARP16 (poly(ADP-ribose) polymerase family member 16)	2	66.7	active
RIPK4 (receptor interacting serine/threonine kinase 4)	2	73.7	active
EIF2AK1 (eukaryotic translation initiation factor 2 alpha kinase 1)	1	57.8	active
EIF2AK1 (eukaryotic translation initiation factor 2 alpha kinase 1)	2	66.8	active
EIF2AK1 (eukaryotic translation initiation factor 2 alpha kinase 1)	3	63.1	active

Additional records follow.
target	technical replicate	viability, normalised (%)	outcome
CDC42BPA (CDC42 binding protein kinase alpha)	1	68.2	active
CDC42BPA (CDC42 binding protein kinase alpha)	2	65	active
CDC42BPA (CDC42 binding protein kinase alpha)	3	78.8	active
CLDN11 (claudin 11)	1	64.5	active
CLDN11 (claudin 11)	2	74	active
CLDN11 (claudin 11)	3	68.8	active
SMPD1 (sphingomyelin phosphodiesterase 1)	1	68.5	active
SMPD1 (sphingomyelin phosphodiesterase 1)	2	72.2	active
SMPD1 (sphingomyelin phosphodiesterase 1)	3	55.3	active
SPEG (striated muscle enriched protein kinase)	1	106	inactive
SPEG (striated muscle enriched protein kinase)	1	61.8	active
SPEG (striated muscle enriched protein kinase)	2	64.8	active
SPEG (striated muscle enriched protein kinase)	2	92.5	inactive
SPEG (striated muscle enriched protein kinase)	3	72	active
SPEG (striated muscle enriched protein kinase)	3	81.6	inactive
CCT2 (chaperonin containing TCP1 subunit 2)	1	46.3	active
CCT2 (chaperonin containing TCP1 subunit 2)	2	63.9	active
CCT2 (chaperonin containing TCP1 subunit 2)	3	65.5	active
LATS1 (large tumor suppressor kinase 1)	1	76.9	active
LATS1 (large tumor suppressor kinase 1)	1	57.9	active
LATS1 (large tumor suppressor kinase 1)	2	76.8	active
LATS1 (large tumor suppressor kinase 1)	2	70.9	active
LATS1 (large tumor suppressor kinase 1)	3	61.4	active
LATS1 (large tumor suppressor kinase 1)	3	77.3	active
